Data as given in PubChem BioAssay AID1259308 (NCATS, 2017).
Aim: 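Knock-downs that increase output of a recombinant reporter protein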 (primary screen). System: human HEK293 embryonic kidney cells stably expressing firefly luciferase (HEK-CMV-Luc2-Hygro). Reagent: single siRNA against human genes, 0.8 pmol siRNA per well. Timing: 72 h. Read-out: 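Reporter luminescence and viable-cell signal on separate replicate plates, given as percent of non-targeting control and median/MAD z-scores, plus per-cell luciferase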. Direction: total luciferase, z-score: higher = more reporter protein produced. Call rule: 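An siRNA counts as active if its total luciferase robust z-score exceeds 3; genes with two or more such siRNAs out of three were retested with fresh siRNAs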. Meaning of the calls: active = raised luciferase; inactive = no rise.
In all, the deposit lists about 59,000 reagents; this is a part drawn at random. About 1,510 of all reagents (2.6%) count as active. 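Calls use total luciferase alone and ignore viability, so some active siRNAs may act by altering cell number.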 Unmarked entries are inactive. The numbers tell different reagents against one gene apart. Not all columns of the deposit are shown. No sequences are given here.

gene knocked down	reagent no.	total luciferase, z-score
SLCO1B7	1	0.504
SLCO1B7	2	-1.7
SLCO1B7	3	0.158
INPP5A (inositol polyphosphate-5-phosphatase A)	1	0.189
INPP5A (inositol polyphosphate-5-phosphatase A)	2	-0.611
INPP5A (inositol polyphosphate-5-phosphatase A)	3	-0.382
FAM241B (family with sequence similarity 241 member B)	1	-0.851
FAM241B (family with sequence similarity 241 member B)	2	-0.00632
FAM241B (family with sequence similarity 241 member B)	3	-1.25
LOC647481 (family with sequence similarity 91 member A1 pseudogene)	1	-2.15
LOC647481 (family with sequence similarity 91 member A1 pseudogene)	2	0.236
LOC647481 (family with sequence similarity 91 member A1 pseudogene)	3	0.666
PDIK1L (PDLIM1 interacting kinase 1 like)	1	-1.58
PDIK1L (PDLIM1 interacting kinase 1 like)	2	0.23
PDIK1L (PDLIM1 interacting kinase 1 like)	3	0.748
DEFB115 (defensin beta 115)	1	-0.303
DEFB115 (defensin beta 115)	2	-1.67
DEFB115 (defensin beta 115)	3	0.491
CCR3 (C-C motif chemokine receptor 3)	1	1.35
CCR3 (C-C motif chemokine receptor 3)	2	0.58
CCR3 (C-C motif chemokine receptor 3)	3	-2.03
LOC401410 (retired record)	1	1.82
LOC401410 (retired record)	2	1.77
LOC401410 (retired record)	3	-0.924
GYS1 (glycogen synthase 1)	1	-0.653
GYS1 (glycogen synthase 1)	2	1.62
GYS1 (glycogen synthase 1)	3	-1.12
CARMN (cardiac mesoderm enhancer-associated non-coding RNA)	1	0.159
CARMN (cardiac mesoderm enhancer-associated non-coding RNA)	2	0.481
CARMN (cardiac mesoderm enhancer-associated non-coding RNA)	3	0.503
PPIP5K1 (diphosphoinositol pentakisphosphate kinase 1)	1	0.0275
PPIP5K1 (diphosphoinositol pentakisphosphate kinase 1)	2	0.434
PPIP5K1 (diphosphoinositol pentakisphosphate kinase 1)	3	-1.24
CAMK2B (calcium/calmodulin dependent protein kinase II beta)	1	0.91
CAMK2B (calcium/calmodulin dependent protein kinase II beta)	2	0.454
CAMK2B (calcium/calmodulin dependent protein kinase II beta)	3	0.437
SLC2A4	1	-1.7
SLC2A4	2	-0.046
SLC2A4	3	-1.31
VARS1 (valyl-tRNA synthetase 1)	1	-0.0416
VARS1 (valyl-tRNA synthetase 1)	2	4.65 (active)
VARS1 (valyl-tRNA synthetase 1)	3	2.95
LTB4R2 (leukotriene B4 receptor 2)	1	0.396
LTB4R2 (leukotriene B4 receptor 2)	2	-0.463
LTB4R2 (leukotriene B4 receptor 2)	3	-0.465
TMEM108 (transmembrane protein 108)	1	0.00379
TMEM108 (transmembrane protein 108)	2	0.121
TMEM108 (transmembrane protein 108)	3	0.616
MAFB (MAF bZIP transcription factor B)	1	0.361
MAFB (MAF bZIP transcription factor B)	2	-0.0624
MAFB (MAF bZIP transcription factor B)	3	0.197
BEST4 (bestrophin 4)	1	1.37
BEST4 (bestrophin 4)	2	1.24
BEST4 (bestrophin 4)	3	4.16 (active)
ADAMTS10 (ADAM metallopeptidase with thrombospondin type 1 motif 10)	1	2.02
ADAMTS10 (ADAM metallopeptidase with thrombospondin type 1 motif 10)	2	-2.08
ADAMTS10 (ADAM metallopeptidase with thrombospondin type 1 motif 10)	3	-1.23
CFAP119 (cilia and flagella associated protein 119)	1	-1.98
CFAP119 (cilia and flagella associated protein 119)	2	-0.202
CFAP119 (cilia and flagella associated protein 119)	3	-0.672
NRF1 (nuclear respiratory factor 1)	1	-0.757
NRF1 (nuclear respiratory factor 1)	2	-0.146
NRF1 (nuclear respiratory factor 1)	3	-0.903
SCFD2 (sec1 family domain containing 2)	1	-0.412
SCFD2 (sec1 family domain containing 2)	2	-0.0692
SCFD2 (sec1 family domain containing 2)	3	0.789
SLC25A18	1	-1.42
SLC25A18	2	5.89 (active)
SLC25A18	3	0.199
TRAF2 (TNF receptor associated factor 2)	1	0.194
TRAF2 (TNF receptor associated factor 2)	2	0.916
TRAF2 (TNF receptor associated factor 2)	3	-0.952
FZD6 (frizzled class receptor 6)	1	-1.07
FZD6 (frizzled class receptor 6)	2	-0.755
FZD6 (frizzled class receptor 6)	3	0.338

Targets above whose target name begins with N or n (3):
gene knocked down	reagent no.	total luciferase, z-score
NRF1 (nuclear respiratory factor 1)	1	-0.757
NRF1 (nuclear respiratory factor 1)	2	-0.146
NRF1 (nuclear respiratory factor 1)	3	-0.903
